# Measured values from PubChem BioAssay AID1671190 (National Center for Advancing Translational Sciences (NCATS), 2021).
# Sequences of proteins named here, by UniProt entry; tags and fusion partners are left off. A change or cut given only in a name is not applied to a line headed by its entry.
# UniProt P18054: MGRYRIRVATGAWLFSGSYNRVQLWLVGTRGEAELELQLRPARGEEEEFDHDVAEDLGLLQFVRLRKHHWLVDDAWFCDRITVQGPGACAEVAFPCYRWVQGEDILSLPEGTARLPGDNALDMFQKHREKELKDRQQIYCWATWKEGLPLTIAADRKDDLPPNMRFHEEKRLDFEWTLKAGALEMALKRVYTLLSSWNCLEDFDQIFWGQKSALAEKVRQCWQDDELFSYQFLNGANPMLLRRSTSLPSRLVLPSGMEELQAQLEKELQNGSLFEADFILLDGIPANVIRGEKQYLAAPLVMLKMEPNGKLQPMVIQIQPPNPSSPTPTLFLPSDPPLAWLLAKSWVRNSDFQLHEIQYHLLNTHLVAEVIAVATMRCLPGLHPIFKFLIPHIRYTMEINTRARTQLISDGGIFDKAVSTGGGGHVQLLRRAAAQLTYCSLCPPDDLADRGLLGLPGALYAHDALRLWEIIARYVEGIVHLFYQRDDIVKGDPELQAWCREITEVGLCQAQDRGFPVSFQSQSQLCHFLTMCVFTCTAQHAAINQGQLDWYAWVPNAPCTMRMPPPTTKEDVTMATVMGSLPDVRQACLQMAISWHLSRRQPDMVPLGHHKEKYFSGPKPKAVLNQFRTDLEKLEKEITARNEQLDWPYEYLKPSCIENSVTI
# The campaign covered roughly 580,000 compounds. About 6,100 (1.1%) were called active. The inconclusive results got no clear call from the source; some entries with a clear call stand among them for comparison. Calls follow the shape of the dose curve; as a rule, active = well fitted inhibition curve with a large enough effect; inconclusive = small, poorly fitted or top-dose-only effect, or another doubt; inactive = no such curve, though single readings can be large or run the other way. Potencies beside an inconclusive call are fits to weak or partial responses and may not hold up.
# Molecular target: Polyunsaturated fatty acid lipoxygenase ALOX12 (Homo sapiens) (UniProt P18054)
# Test: Primary qHTS assay for inhibitors of human arachidonate 12S-lipoxygenase (ALOX12): Round 2
# Conditions: purified 12hLO, xylenol orange hydroperoxide absorbance; activity change, negative = inhibition: at 108 µM (top of the series) unless noted
# Method in brief: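 Purified human 12hLO at 150 nM in 25 mM Hepes, 0.01% Triton X-100, pH 7.0, preincubated 15 min at room temperature with compound. Reaction started with 40 uM arachidonic acid, 30 min at room temperature. Hydroperoxide measured by Fe-xylenol orange, 573/405 nm absorbance ratio.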
# % is scaled to controls: 0 for no effect and ±100 for the full control effect; potency is read from the fitted curve at half-maximal effect.
SMILES,Potency,"activity change, negative = inhibition"
O=C(NCCS(=O)(=O)N1CCN(c2ccccc2)CC1)C12CC3CC(CC(C3)C1)C2,"inconclusive: 100 µM [inhibitor, single point]",
CN(C)C(=O)C(Sc1nc2cc(S(=O)(=O)N3CCCCC3)ccc2o1)c1ccccc1 (centres undefined),,inactive: -9.1%
COc1cccc(OC)c1OCCCCN1CCCC1,"inconclusive: 0.316 µM [inhibitor, full curve, poor fit]",
O=C(CCCCCn1c(=S)[nH]c2ccccc2c1=O)N1CCOCC1,"inconclusive: 7.08 µM [inhibitor, partial curve, poor fit]",
Cc1nn(-c2ccccc2)c2c1N(CCCC(=O)NC(C)c1ccccc1)C(=O)CS2 (centres undefined),"inconclusive: 141 µM [inhibitor, single point]",
COc1cc(OC)cc(C(=O)N2CCN(C(=O)c3cccc(F)c3)CC2)c1,,inactive: 25.9%
Cc1onc(-c2ccccc2Cl)c1C(=O)OCC(=O)N1CCCCC1,,inactive: 24.2%
NC(c1ccccc1)c1csc(Nc2ccc(C(=O)c3ccccc3)cc2)n1 (centres undefined),"inconclusive: 79.4 µM [inhibitor, single point]",
CNC(=O)[C@@H](Cc1ccccc1)N1CCC[C@H]1C(=O)N1CCN(C)CC1,"inconclusive: 25.1 µM [inhibitor, single point]",
CCC(CC)C(=O)N(C)c1c(C)nc2c(OCc3ccc(C#N)cc3)cccn12,"inconclusive: 44.7 µM [inhibitor, partial curve, poor fit]",
CS(=O)(=O)c1ccc(NC(=O)CN2C(=O)C3CCCCC3C2=O)cc1 (centres undefined),,inactive: 204%
COCCNC(=O)Nc1ccc2c(c1)N(C)C(=O)c1ccccc1S2,,inactive: 3.29%
O=C1CC2(CCN(C(=O)COc3ccccc3)CC2)Oc2ccccc21,,inactive: -8.68%
Nc1nnc(CC(=O)N/N=C/c2ccc(-c3ccccc3Cl)o2)s1,"inconclusive: 70.8 µM [inhibitor, partial curve, poor fit]",
COc1ccc2c(c1)sc(=N)n2CC(=O)Nc1cc(C)cc(C)c1,"inconclusive: 100 µM [inhibitor, single point]",
CC(CNC(=O)Cn1cnc2c(OCc3ccccc3)ncnc21)c1ccccc1 (centres undefined),"inconclusive: 50.1 µM [inhibitor, partial curve, poor fit]",
CCOC(=O)C1CCN(C(=O)c2coc(COc3cccc(F)c3)n2)CC1,,inactive: 108%
O=C(CCCCCNC(=O)N1CCn2c1nc1ccccc12)N[C@H](Cc1ccccc1)C(=O)O,"inconclusive: 39.8 µM [inhibitor, partial curve, poor fit]",
Cc1ccc(F)cc1NC(=O)C1CCCN1S(=O)(=O)c1ccc(Br)cc1 (centres undefined),"inconclusive: 56.2 µM [inhibitor, partial curve, poor fit]",

# A portion from the list above, for reference:
SMILES,Potency,"activity change, negative = inhibition"
O=C(CCCCCn1c(=S)[nH]c2ccccc2c1=O)N1CCOCC1,"inconclusive: 7.08 µM [inhibitor, partial curve, poor fit]",
Cc1nn(-c2ccccc2)c2c1N(CCCC(=O)NC(C)c1ccccc1)C(=O)CS2 (centres undefined),"inconclusive: 141 µM [inhibitor, single point]",
COc1cc(OC)cc(C(=O)N2CCN(C(=O)c3cccc(F)c3)CC2)c1,,inactive: 25.9%
